{"sequences": {"note": "The chains behind the UniProt entries cited, without tags or fusion partners. Where a name states a change or a piece, a line headed by the entry shows the natural chain unless it says otherwise.", "UniProt P53618": "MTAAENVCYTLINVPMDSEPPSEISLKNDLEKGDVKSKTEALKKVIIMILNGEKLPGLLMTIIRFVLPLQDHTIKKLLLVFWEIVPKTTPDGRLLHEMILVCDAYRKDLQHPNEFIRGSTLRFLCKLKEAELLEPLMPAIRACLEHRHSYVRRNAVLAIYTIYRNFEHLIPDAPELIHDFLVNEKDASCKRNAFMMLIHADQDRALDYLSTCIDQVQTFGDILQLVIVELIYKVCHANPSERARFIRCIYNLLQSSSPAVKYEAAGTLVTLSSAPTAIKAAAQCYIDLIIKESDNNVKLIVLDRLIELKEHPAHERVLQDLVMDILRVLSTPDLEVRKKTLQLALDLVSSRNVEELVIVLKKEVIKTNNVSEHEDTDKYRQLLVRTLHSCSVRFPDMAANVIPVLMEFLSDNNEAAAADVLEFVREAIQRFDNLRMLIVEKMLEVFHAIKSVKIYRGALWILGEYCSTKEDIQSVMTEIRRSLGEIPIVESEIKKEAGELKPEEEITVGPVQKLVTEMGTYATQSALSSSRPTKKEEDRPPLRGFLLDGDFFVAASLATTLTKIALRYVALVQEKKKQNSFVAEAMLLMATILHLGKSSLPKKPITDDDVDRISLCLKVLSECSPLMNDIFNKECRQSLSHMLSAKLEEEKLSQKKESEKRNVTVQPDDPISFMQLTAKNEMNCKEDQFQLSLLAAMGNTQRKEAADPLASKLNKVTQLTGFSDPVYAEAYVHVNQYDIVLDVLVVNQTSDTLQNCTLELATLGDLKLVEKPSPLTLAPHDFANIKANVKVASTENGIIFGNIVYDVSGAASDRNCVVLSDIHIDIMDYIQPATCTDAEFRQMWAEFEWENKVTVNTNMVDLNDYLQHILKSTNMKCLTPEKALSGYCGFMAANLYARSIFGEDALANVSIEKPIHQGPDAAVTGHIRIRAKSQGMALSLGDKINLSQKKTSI", "UniProt P51956": "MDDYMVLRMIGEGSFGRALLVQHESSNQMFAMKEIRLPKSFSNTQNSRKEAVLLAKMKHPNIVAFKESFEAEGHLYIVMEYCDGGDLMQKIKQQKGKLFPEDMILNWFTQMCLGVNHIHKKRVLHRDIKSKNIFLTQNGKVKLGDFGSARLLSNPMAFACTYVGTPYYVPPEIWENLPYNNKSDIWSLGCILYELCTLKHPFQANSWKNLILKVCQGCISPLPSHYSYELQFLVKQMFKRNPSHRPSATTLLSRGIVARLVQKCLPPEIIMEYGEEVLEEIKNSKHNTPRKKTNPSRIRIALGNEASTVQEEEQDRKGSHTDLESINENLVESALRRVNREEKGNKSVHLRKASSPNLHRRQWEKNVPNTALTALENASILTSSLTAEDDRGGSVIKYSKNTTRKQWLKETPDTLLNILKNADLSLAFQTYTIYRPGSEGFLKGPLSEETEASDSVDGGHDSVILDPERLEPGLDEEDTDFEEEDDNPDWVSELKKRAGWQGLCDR", "UniProt P50502": "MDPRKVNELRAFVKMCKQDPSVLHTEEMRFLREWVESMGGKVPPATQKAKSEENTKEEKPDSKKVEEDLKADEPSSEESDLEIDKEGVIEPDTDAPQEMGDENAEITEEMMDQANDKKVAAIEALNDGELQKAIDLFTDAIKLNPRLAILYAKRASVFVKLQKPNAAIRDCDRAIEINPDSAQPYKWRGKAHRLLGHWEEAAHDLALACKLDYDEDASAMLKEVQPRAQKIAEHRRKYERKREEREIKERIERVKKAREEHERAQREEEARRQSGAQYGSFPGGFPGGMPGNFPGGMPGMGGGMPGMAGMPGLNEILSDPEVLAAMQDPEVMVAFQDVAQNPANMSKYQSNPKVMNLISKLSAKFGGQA", "UniProt P52594": "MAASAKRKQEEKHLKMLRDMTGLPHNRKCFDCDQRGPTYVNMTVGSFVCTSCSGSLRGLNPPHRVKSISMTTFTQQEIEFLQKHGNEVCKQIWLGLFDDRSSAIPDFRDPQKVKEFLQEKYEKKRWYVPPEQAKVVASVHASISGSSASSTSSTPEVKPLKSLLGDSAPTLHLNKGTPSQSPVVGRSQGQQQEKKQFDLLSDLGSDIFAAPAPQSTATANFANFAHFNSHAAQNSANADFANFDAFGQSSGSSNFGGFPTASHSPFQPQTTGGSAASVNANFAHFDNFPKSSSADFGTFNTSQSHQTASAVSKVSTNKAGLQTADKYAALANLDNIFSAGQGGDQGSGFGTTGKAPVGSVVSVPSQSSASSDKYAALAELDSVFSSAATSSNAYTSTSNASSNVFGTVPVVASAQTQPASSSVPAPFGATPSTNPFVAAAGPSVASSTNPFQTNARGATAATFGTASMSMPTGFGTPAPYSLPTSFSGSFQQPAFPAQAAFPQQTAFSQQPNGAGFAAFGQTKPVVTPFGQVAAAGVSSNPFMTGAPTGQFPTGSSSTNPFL", "UniProt P52701": "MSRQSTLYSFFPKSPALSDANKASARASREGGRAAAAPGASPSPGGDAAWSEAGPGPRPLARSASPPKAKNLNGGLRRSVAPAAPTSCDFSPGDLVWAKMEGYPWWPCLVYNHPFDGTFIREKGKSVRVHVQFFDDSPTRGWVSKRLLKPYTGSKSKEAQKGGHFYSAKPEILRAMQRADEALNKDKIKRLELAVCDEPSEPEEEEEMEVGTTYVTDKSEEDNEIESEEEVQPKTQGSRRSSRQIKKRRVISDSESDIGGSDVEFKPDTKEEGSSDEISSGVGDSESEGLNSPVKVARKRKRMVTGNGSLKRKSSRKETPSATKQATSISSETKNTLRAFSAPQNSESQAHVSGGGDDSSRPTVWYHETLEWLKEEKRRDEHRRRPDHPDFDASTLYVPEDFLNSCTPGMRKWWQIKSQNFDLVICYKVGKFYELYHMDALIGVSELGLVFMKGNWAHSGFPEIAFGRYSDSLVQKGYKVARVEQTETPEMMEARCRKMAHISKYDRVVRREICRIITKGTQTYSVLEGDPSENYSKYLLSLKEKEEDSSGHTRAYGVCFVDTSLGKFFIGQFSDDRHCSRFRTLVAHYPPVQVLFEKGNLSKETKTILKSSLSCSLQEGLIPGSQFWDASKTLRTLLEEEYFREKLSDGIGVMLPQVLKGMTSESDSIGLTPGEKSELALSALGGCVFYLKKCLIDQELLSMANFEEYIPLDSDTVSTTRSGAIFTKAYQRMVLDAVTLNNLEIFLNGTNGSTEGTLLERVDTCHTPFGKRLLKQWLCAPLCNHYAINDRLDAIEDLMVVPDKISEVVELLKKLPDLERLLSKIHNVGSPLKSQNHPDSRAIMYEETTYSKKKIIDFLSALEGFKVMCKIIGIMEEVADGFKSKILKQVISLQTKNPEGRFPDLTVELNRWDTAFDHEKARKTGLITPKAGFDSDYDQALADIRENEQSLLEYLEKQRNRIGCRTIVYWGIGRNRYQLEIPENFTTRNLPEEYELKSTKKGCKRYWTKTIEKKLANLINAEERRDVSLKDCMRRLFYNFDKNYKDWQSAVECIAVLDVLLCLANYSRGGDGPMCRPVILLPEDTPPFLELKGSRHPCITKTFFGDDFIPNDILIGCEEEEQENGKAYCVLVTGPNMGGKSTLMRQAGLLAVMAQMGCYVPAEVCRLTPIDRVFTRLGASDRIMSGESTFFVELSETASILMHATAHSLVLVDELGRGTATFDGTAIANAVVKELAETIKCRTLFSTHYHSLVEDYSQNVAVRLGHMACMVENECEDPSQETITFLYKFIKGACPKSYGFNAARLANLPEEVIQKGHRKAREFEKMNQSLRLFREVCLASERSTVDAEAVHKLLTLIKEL", "UniProt P50549": "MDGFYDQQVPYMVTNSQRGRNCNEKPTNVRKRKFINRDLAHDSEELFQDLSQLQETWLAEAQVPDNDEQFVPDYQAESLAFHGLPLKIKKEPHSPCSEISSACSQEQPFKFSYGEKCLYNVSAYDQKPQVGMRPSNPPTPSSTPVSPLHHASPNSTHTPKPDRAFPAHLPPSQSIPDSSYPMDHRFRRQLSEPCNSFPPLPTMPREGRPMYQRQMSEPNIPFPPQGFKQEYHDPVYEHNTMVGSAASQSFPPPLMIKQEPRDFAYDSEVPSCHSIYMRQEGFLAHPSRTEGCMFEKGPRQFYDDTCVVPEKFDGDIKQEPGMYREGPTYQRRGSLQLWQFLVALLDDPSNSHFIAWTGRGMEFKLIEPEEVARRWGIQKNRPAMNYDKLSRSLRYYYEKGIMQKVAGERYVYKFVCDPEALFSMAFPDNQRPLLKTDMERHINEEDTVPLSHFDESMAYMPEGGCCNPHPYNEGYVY", "UniProt P53680": "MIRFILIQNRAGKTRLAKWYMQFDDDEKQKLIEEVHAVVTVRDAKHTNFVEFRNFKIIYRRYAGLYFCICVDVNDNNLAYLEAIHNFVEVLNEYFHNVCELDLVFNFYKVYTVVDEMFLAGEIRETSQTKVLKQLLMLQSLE", "UniProt P50579": "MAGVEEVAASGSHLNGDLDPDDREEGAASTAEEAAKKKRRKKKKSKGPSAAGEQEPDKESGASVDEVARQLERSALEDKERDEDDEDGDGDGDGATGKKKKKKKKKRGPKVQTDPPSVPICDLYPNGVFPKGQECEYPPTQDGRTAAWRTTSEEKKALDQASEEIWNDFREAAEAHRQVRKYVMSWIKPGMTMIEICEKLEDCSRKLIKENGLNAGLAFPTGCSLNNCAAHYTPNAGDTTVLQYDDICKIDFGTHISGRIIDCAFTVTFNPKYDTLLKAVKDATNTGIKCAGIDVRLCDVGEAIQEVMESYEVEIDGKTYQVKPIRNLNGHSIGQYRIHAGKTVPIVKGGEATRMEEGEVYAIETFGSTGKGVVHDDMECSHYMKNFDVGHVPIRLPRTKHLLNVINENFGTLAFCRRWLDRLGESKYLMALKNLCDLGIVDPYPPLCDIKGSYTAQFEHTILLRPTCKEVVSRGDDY", "UniProt P51159": "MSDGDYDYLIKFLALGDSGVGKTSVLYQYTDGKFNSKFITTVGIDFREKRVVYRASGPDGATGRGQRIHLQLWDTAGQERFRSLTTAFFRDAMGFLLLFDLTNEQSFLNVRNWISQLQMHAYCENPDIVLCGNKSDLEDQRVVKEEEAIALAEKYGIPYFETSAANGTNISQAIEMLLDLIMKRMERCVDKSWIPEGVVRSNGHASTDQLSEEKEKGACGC", "UniProt P50552": "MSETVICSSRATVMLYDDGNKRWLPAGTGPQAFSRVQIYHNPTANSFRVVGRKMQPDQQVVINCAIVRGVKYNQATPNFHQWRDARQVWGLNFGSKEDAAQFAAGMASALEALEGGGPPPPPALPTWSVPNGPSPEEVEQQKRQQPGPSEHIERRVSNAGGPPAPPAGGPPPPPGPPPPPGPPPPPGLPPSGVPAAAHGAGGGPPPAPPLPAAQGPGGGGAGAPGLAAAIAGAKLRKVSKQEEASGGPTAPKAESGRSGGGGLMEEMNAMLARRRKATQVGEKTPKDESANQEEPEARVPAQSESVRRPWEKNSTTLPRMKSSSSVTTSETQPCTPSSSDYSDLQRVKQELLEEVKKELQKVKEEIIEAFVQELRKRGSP", "UniProt P53041": "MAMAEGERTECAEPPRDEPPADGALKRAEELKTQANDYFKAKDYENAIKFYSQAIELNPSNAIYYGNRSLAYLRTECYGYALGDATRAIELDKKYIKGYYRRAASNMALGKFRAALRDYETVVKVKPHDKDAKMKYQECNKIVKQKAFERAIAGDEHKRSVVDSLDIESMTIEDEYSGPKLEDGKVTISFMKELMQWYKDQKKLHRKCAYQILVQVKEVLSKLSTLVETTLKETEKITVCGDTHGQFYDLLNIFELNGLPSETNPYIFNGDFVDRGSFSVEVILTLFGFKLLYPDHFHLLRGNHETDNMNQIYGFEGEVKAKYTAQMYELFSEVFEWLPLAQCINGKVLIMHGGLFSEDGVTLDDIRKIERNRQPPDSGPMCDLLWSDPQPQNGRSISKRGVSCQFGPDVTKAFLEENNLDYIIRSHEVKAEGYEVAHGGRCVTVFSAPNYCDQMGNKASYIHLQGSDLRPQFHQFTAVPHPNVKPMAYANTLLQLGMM", "UniProt P49023, whole entry": "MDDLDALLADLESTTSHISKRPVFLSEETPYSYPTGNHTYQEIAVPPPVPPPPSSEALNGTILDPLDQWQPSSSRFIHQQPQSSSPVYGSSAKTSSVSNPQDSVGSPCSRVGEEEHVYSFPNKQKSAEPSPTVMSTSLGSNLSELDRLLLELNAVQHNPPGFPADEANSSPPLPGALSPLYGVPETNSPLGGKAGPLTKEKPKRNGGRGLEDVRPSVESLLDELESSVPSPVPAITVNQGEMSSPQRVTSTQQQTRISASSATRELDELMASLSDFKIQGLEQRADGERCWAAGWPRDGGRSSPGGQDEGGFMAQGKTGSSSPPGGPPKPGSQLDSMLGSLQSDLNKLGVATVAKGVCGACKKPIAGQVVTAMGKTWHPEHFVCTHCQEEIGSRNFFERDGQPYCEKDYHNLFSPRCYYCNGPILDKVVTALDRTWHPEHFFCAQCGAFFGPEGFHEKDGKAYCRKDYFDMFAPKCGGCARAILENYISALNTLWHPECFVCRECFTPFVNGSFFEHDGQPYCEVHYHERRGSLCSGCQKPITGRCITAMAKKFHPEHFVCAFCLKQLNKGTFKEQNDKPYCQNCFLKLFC"}, "source": "the supplement of paper PMC12819154", "about": "“High-throughput peptide-centric local stability assay extends protein–ligand identification to membrane proteins, tissues and bacteria” (Nature Structural & Molecular Biology, 2025)", "note": "The other results are listed elsewhere or left out. Small differences around the control level are noise.", "data": [{"compound": "Cc1nc(Nc2ncc(C(=O)Nc3c(C)cccc3Cl)s2)cc(N2CCN(CCO)CC2)n1 [dasatinib]", "assay": "log2 fold change of tryptic peptide abundance, ligand vs vehicle (limited proteolysis) (log2 ratio); higher = more trypsin-susceptible (destabilized)", "settings": "ligand concentration: 5 uM; sample: K562 cleared lysate", "values": [{"target": "HCCS (peptide sequence: AYEYVECPIR, peptide start residue: 60) (UniProt P53701)", "log2 fold change": 0.219}, {"target": "PIP4K2A (peptide sequence: DVEFLAQLK, peptide start residue: 262) (UniProt P48426)", "log2 fold change": -2.99}, {"target": "UniProt P46379 (peptide sequence: VIHLVER, peptide start residue: 81)", "log2 fold change": -0.141}, {"target": "LIMS1 (peptide sequence: AMNNSWHPECFR, peptide start residue: 85) (UniProt P48059)", "log2 fold change": -0.196}, {"target": "CRKL (peptide sequence: SAWYMGPVSR, peptide start residue: 12) (UniProt P46109)", "log2 fold change": 0.146}, {"target": "JAK3 (peptide sequence: KLQFYEDR, peptide start residue: 762) (UniProt P52333)", "log2 fold change": 0.0755}, {"target": "AKR1D1 (peptide sequence: SLGVSNFNRR, peptide start residue: 165) (UniProt P51857)", "log2 fold change": 0.0671}, {"target": "PCYT1A (peptide sequence: TSPPCSPANLSR, peptide start residue: 342) (UniProt P49585)", "log2 fold change": 0.12}, {"target": "COPB1 (peptide sequence: NDLEKGDVK, peptide start residue: 28) (UniProt P53618)", "log2 fold change": -0.376}, {"target": "UniProt P48634 (peptide sequence: GIPPEEPGAPPR, peptide start residue: 936)", "log2 fold change": -0.274}, {"target": "NEK3 (peptide sequence: SKNIFLTQNGK, peptide start residue: 130) (UniProt P51956)", "log2 fold change": -0.723}, {"target": "IDH2 (peptide sequence: LILPHVDIQLK, peptide start residue: 70) (UniProt P48735)", "log2 fold change": 1.01}, {"target": "IQGAP1 (peptide sequence: DRLQYFR, peptide start residue: 827) (UniProt P46940)", "log2 fold change": 0.302}, {"target": "ST13 (peptide sequence: EWVESMGGK, peptide start residue: 33) (UniProt P50502)", "log2 fold change": -0.163}, {"target": "GCLM (peptide sequence: IVAIGTSDLDK, peptide start residue: 159) (UniProt P48507)", "log2 fold change": 0.194}, {"target": "AGFG1 (peptide sequence: SLLGDSAPTLHLNK, peptide start residue: 162) (UniProt P52594)", "log2 fold change": -0.111}, {"target": "CEBPG (peptide sequence: VNQLKEENERLEAK, peptide start residue: 94) (UniProt P53567)", "log2 fold change": -0.0372}, {"target": "RANBP2 (peptide sequence: SGFEDMFAK, peptide start residue: 1534) (UniProt P49792)", "log2 fold change": 0.134}, {"target": "NOP2 (peptide sequence: QQLPEQPFEK, peptide start residue: 758) (UniProt P46087)", "log2 fold change": 0.0814}, {"target": "CDK9 (peptide sequence: ILQLLKHENVVNLIEICR, peptide start residue: 69) (UniProt P50750)", "log2 fold change": 0.26}, {"target": "CCT3 (peptide sequence: AVAQALEVIPR, peptide start residue: 439) (UniProt P49368)", "log2 fold change": -0.131}, {"target": "MSH6 (peptide sequence: FPDLTVELNR, peptide start residue: 902) (UniProt P52701)", "log2 fold change": -0.209}, {"target": "ETV1 (peptide sequence: TEGCMFEKGPR, peptide start residue: 289) (UniProt P50549)", "log2 fold change": -0.0724}, {"target": "DAP3 (peptide sequence: DLLQSSYNK, peptide start residue: 167) (UniProt P51398)", "log2 fold change": 0.343}, {"target": "HSD17B4 (peptide sequence: VVLVTGAGAGLGR, peptide start residue: 11) (UniProt P51659)", "log2 fold change": 0.316}, {"target": "METAP1 (peptide sequence: LQCPTCIK, peptide start residue: 20) (UniProt P53582)", "log2 fold change": 0.0148}, {"target": "UniProt P53680 (peptide sequence: HTNFVEFR, peptide start residue: 46)", "log2 fold change": -0.151}, {"target": "PPT1 (peptide sequence: TLNAGAYSK, peptide start residue: 166) (UniProt P50897)", "log2 fold change": 0.0715}, {"target": "RPL14 (peptide sequence: APAQKAPAPK, peptide start residue: 200) (UniProt P50914)", "log2 fold change": -0.178}, {"target": "METAP2 (peptide sequence: SALEDKERDEDDEDGDGDGDGATGK, peptide start residue: 74) (UniProt P50579)", "log2 fold change": 0.0999}, {"target": "CAPZA2 (peptide sequence: ICFKFDHLRK, peptide start residue: 94) (UniProt P47755)", "log2 fold change": 0.437}, {"target": "FNTA (peptide sequence: DVYDYFR, peptide start residue: 98) (UniProt P49354)", "log2 fold change": 0.116}, {"target": "RAB27A (peptide sequence: SNGHASTDQLSEEKEKGACGC, peptide start residue: 201) (UniProt P51159)", "log2 fold change": -0.241}, {"target": "VASP (peptide sequence: VKQELLEEVKK, peptide start residue: 347) (UniProt P50552)", "log2 fold change": 0.131}, {"target": "UniProt P53779 (peptide sequence: EHTIEEWK, peptide start residue: 346)", "log2 fold change": 0.0995}, {"target": "ERF (peptide sequence: ARPPGPPDLGAFRGPPLAR, peptide start residue: 206) (UniProt P50548)", "log2 fold change": -0.54}, {"target": "PPP5C (peptide sequence: AIAGDEHKR, peptide start residue: 151) (UniProt P53041)", "log2 fold change": -0.212}, {"target": "PXN (peptide sequence: GSLCSGCQKPITGR, peptide start residue: 532) (UniProt P49023)", "log2 fold change": 0.091}]}]}
